Patent CN115677858A
No constants are given. Whether binding was seen depends on the method and setting. Some results given as binding are weak or reduced against the parent protein; the word gives no strength.

Amino acid sequences for entries named in this document (tags omitted). A change or cut given only in a name is not applied to a line headed by its entry.
UniProt Q9NZQ7: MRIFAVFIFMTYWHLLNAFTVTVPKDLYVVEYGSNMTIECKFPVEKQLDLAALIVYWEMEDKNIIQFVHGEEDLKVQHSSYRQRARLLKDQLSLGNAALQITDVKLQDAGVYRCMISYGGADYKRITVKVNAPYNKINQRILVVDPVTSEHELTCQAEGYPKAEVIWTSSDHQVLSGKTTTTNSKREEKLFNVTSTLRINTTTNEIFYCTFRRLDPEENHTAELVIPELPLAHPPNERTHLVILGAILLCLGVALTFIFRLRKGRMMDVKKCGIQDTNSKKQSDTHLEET

Legend:
[1] = target: 人PD-L1全长 (SEQ ID No.22)，表达于CHO-K1细胞 (human) (UniProt Q9NZQ7); test: stated in the discussion of the CD137/NFκB reporter assay with CHO-K1/hPD-L1 cells
[2] = target: 猴PD-L1胞外段 (SEQ ID No.23) (monkey); test: ELISA, monkey PD-L1 extracellular domain coated, goat anti-human HRP
[3] = target: 猴CD137胞外段 (SEQ ID No.20) (monkey); test: ELISA, monkey CD137 extracellular domain coated, goat anti-human HRP

Binder	binding [1]	binding [2]	binding [3]
亲本抗体Anti-PD-L1 (中国专利申请CN 201910174374.8的抗人PD-L1单克隆抗体) (antibody, V domains shown) VH: DVQLVESGGGLVQPGGSLRLSCTVSGIDLSSYDMTWVRQAPGKGLEYIGYISYVSRTYYADSVKGRFTISKDTSKNTVYLQMNSLRAEDTAVYYCARDRPDGAATNLWGQGTLVTVSS VL: DIQMTQSPSTLSASVGDRVTITCQSSQNVYSNNRLSWYQQKPGKAPKLLIYWTSFLASGVPSRFSGSGSGTEFTLTISSLQPDDFATYYCAGGYSGNLYTFGQGTKLEIKR	binds	binds	
亲本抗体Anti-CD137 (中国专利申请CN 201911105611.1中的抗人CD137单克隆抗体Hanke10F4) (antibody, V domains shown) VH: QVQLQESGPGLVKPSETLSLTCTVSGSSLTSYGVHWVRQPPGKGLEGLGVIWPGGSTNYNSALMSRVTISKDNSKSQVSLKMSSLTAADTAVYYCARVTGTWYFDVWGQGTTVTVSS VL: DIQMTQSPSSLSASLGDRVTISCSASQGISNYLNWYQQKPDGTVKLLIYYTSTLHSGVPSRFSGSGSGTDYTLTISSLQPEDIATYYCQQYSKLPWTFGGGTKLEIK			binds
